The text below walks through data of publication PMC6499206, “Quantification of Volatile Metabolites Derived From Garlic (Allium sativum) in Human Urine” (Frontiers in Nutrition, 2019).

Series [1] in a line: Determination of LOD and LOQ in synthetic urine (DIN 32645 calibration line method).
On the set-up of series [2]: method as in PMID 27275838. Conditions: cited from earlier work.
Where [3] appears, read: synthetic urine, absolute amount.

Where two headings read alike, the source gives them in different places.

In series [1], `C=CCSC` [AMS, allyl methyl sulfide] came in with an LOD of 1.6 ng and an LOQ of 7.6 ng. In series [1] (setting [3]), this compound showed an LOD of 1.6 ng and an LOQ of 7.6 ng. Also, the odor activity result in series [2] is reported as “garlic-like aroma”.

In series [1], `C=CC[S+](C)[O-]` (stereo not drawn) [AMSO, allyl methyl sulfoxide] registered an LOD of 22.0 ng and an LOQ of 77.4 ng. In series [1] (setting [3]), the LOD is reported as 22.0 ng and the LOQ is given as 77.4 ng. In series [2], the odor activity result is “neither AMSO nor AMSO2 are odor-active”.

In series [1], `C=CCS(C)(=O)=O` [AMSO2, allyl methyl sulfone] came in with an LOD of 22.4 ng and an LOQ of 78.6 ng. In series [1] (setting [3]), this compound came in with an LOD of 22.4 ng and an LOQ of 78.6 ng. Further, the odor activity entry in series [2] is “neither AMSO nor AMSO2 are odor-active”.
